Measurements from paper PMC8469114.
These are yes or no findings as the source states them, for the method shown. In cells and extracts the contact can be indirect. Some entries that bind do so weakly or less than the wild type.

Amino acid sequences for entries named in this document (tags omitted). Residues count along the entry.
UniProt Q9NZQ7, residues 19-290: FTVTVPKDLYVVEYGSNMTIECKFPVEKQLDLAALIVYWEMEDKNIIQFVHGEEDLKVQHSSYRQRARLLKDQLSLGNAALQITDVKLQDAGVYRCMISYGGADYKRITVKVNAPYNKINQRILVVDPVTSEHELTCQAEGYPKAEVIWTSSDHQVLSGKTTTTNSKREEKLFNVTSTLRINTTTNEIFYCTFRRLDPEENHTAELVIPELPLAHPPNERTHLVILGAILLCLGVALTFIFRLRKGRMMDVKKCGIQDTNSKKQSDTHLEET
UniProt P35241: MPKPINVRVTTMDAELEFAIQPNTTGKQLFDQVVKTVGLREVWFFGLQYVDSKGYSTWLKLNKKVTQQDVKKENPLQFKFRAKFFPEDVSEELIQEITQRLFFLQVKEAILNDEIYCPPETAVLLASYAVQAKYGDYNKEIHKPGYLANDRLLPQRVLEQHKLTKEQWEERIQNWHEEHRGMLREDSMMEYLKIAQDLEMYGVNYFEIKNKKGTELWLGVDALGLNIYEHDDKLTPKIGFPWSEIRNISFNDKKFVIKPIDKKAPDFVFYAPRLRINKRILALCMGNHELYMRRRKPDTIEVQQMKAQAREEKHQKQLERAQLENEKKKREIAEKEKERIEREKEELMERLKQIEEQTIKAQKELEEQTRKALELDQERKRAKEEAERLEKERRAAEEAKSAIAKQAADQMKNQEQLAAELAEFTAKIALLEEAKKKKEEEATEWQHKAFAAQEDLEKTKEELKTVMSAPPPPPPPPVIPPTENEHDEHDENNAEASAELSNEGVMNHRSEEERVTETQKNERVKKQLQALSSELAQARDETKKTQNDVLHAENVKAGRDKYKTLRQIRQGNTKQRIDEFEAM
UniProt P26038: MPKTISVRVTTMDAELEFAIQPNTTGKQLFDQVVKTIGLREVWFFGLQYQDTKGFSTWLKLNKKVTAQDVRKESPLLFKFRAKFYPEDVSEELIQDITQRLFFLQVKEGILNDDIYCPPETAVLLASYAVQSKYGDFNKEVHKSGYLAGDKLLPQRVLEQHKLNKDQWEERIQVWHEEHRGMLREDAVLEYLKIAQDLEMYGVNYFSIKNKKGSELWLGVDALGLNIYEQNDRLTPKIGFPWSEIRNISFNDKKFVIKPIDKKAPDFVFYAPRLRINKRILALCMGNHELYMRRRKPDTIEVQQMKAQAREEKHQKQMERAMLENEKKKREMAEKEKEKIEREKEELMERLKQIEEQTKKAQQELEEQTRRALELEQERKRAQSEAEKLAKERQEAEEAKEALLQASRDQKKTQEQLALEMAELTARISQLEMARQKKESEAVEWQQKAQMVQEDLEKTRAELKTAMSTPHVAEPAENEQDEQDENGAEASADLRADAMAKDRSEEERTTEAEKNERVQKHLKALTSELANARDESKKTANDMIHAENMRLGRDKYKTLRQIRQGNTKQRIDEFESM
UniProt P15311: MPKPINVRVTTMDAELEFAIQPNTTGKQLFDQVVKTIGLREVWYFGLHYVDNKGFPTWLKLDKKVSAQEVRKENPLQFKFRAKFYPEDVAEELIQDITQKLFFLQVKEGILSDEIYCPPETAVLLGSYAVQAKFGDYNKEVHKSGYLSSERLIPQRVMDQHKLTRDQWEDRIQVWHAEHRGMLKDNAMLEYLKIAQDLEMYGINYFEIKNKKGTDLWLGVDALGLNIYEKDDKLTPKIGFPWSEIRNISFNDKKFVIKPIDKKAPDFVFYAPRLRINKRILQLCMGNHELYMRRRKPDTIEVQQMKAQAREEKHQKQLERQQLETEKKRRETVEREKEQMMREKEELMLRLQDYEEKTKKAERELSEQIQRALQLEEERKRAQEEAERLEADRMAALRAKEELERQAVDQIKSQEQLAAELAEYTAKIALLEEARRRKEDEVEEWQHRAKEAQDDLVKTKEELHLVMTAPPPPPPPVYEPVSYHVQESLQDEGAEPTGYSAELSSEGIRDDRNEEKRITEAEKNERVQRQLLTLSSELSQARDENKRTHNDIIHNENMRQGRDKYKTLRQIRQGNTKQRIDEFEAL

Assays:
Assay in all cases: co-IP; pre-cleared HeLa whole-cell lysate (RIPA buffer with protease inhibitors) incubated overnight at 4 °C with rabbit Ab against PD-L1, ezrin, radixin or moesin, or control Ab (1:30); nProtein A Sepharose; washed thrice with RIPA buffer; Western blot
[1] = target: programmed cell death ligand-1 (human (endogenous in HeLa)) (UniProt Q9NZQ7)
[2] = target: radixin (human (endogenous in HeLa)) (UniProt P35241)
[3] = target: moesin (human (endogenous in HeLa)) (UniProt P26038)
[4] = target: ezrin (human (endogenous in HeLa)) (UniProt P15311)

Row | Substance | binding [1] | binding [2] | binding [3] | binding [4]
1 | moesin (from UniProt P26038 1-577) | binds |  |  | 
2 | programmed cell death ligand-1 (from UniProt Q9NZQ7 19-290) |  | binds | binds | binds
3 | ezrin (from UniProt P15311 1-586) | binds |  |  | 
4 | radixin (from UniProt P35241 1-583) | binds |  |  | 
5 | phosphorylated ezrin (from UniProt P15311 1-586) | binds |  |  | 
